Results published in paper PMC11423193.
No constants are given. Whether binding was seen depends on the method and setting. In cells and extracts the contact can be indirect. Some results given as binding are weak or reduced against the parent protein; the word gives no strength. Where a sequence is shown, tags or fusion partners need not be part of it.

Assays:
HDAC7-Flag [1] = target: T1, HDAC7-Flag (UniProt Q8WUI4); assay: co-IP; 293T cells transfected with HDAC7-Flag, without compound or treated with TMP269 (5 µM) for 12 h; RIPA lysis buffer; Flag beads overnight at 4 °C; immunoblot with anti-Flag, anti-TAK1, anti-TRAF6
T1 sequence: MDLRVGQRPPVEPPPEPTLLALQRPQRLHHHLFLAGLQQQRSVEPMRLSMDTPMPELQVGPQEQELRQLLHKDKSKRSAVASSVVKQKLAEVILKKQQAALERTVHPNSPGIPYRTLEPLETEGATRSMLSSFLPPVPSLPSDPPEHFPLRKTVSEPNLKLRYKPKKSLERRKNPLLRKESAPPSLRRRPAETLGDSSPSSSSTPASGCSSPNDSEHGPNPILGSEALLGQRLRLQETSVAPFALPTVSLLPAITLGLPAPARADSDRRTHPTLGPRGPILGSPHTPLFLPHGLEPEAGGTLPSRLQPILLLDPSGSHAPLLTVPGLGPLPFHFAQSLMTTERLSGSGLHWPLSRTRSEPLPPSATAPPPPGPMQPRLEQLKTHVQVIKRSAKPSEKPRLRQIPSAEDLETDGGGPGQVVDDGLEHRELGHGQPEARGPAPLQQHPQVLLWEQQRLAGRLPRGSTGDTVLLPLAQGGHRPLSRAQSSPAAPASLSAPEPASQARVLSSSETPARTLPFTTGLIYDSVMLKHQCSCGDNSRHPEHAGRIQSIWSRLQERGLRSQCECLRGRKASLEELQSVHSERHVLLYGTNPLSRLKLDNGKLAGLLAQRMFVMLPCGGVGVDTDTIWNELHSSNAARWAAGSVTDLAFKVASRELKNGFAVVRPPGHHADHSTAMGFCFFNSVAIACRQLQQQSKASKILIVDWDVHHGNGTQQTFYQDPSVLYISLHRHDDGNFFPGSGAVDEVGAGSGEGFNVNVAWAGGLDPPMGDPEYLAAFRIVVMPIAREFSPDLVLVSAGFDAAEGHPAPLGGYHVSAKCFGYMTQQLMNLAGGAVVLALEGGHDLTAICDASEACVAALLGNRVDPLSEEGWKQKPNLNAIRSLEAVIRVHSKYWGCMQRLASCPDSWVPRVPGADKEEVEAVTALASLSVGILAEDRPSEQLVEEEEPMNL

HDAC7-Flag [2] = target: T1, HDAC7-Flag; assay: condition: only cells treated with B4 (5 µM) for 12 h; co-IP; 293T cells transfected with HDAC7-Flag and treated with B4 (5 µM) for 12 h; RIPA lysis buffer; Flag beads overnight at 4 °C; immunoblot with anti-Flag, anti-TAK1, anti-TRAF6

binding (HDAC7-Flag [1]): binds
binding (HDAC7-Flag [2]): no binding
B1: TGFβ-activated kinase 1 (protein, UniProt O43318 1-606)
chain: MSTASAASSSSSSSAGEMIEAPSQVLNFEEIDYKEIEVEEVVGRGAFGVVCKAKWRAKDVAIKQIESESERKAFIVELRQLSRVNHPNIVKLYGACLNPVCLVMEYAEGGSLYNVLHGAEPLPYYTAAHAMSWCLQCSQGVAYLHSMQPKALIHRDLKPPNLLLVAGGTVLKICDFGTACDIQTHMTNNKGSAAWMAPEVFEGSNYSEKCDVFSWGIILWEVITRRKPFDEIGGPAFRIMWAVHNGTRPPLIKNLPKPIESLMTRCWSKDPSQRPSMEEIVKIMTHLMRYFPGADEPLQYPCQYSDEGQSNSATSTGSFMDIASTNTSNKSDTNMEQVPATNDTIKRLESKLLKNQAKQQSESGRLSLGASRGSSVESLPPTSEGKRMSADMSEIEARIAATTAYSKPKRGHRKTASFGNILDVPEIVISGNGQPRRRSIQDLTVTGTEPGQVSSRSSSPSVRMITTSGPTSEKPTRSHPWTPDDSTDTNGSDNSIPMAYLTLDHQLQPLAPCPNSKESMAVFEQHCKMAQEYMKVQTEIALLLQRKQELVAELDQDEKDQQNTSRLVQEHKKLLDENKSLSTYYQQCKKQLEVIRSQQQKRQGTS
